Several values for one entry are separate records, joined by “and”; a condition that tells them apart may be missing. Equal entries are not always repeated. Inconclusive means that the source gave no clear call. Such entries were picked first, then a sample of the others. Potencies beside an inconclusive call are fits to weak or partial responses and may not hold up. “Side channel” marks fits to a control or component signal instead of the main read-out. Activity calls are given as the source filed them. Calls come from the whole dose curve; as a rule, active = well fitted activation curve with a large enough effect in the signal ratio; inconclusive = small, poorly fitted or top-dose-only effect, or effect the other way, or a change in a side signal; inactive = flat fitted curve, though single readings scatter; the % refers to the signal ratio.
Assay: qHTS assay for small molecule agonists of the antioxidant response element (ARE) signaling pathway (AID 651741); for activation: % of control where 0% means no effect
Conditions: HepG2 ARE-bla reporter, beta-lactamase FRET ratio, 16 h; activation: at 96 µM (top of the series) unless noted
Text: National Center for Advancing Translational Sciences [NCATS]
NIH Chemical Genomics Center [NCGC]
U.S. Environmental Protection Agency [EPA]
National Institutes of Environmental Health Sciences [NIEHS]
National Toxicology Program [NTP]
Oxidative stress has been implicated in the pathogenesis of a variety of diseases ranging from cancer to neurodegeneration. The antioxidant response element (ARE) signaling pathway plays an important role in the amelioration of oxidative stress. The CellSensor ARE-bla HepG2 cell line (Invitrogen) can be used for analyzing the Nrf2/antioxidant response signaling pathway. Nrf2 (NF-E2-related factor 2) and Nrf1 are transcription factors that bind to AREs and activate these genes. The CellSensor ARE-bla Hep G2 cell line contains a beta-lactamase reporter gene under control of the Antioxidant Response Element (ARE) stably integrated into HepG2 cells. The activation of the report gene under culture conditions can be detected by fluorescence intensity. This cell line can be used to screen chemicals in a 1536-well plate format and to identify agonists that induce oxidative stress.
The ARE-bla cells were dispensed at 2,000 cells/5 ul/well in 1536-well black wall/clear bottom plates using a Multidrop dispenser. After the assay plates were incubated at a 37 C/5% CO2 incubator for 5 hours, 23 nL of compounds dissolved in DMSO, positive controls or DMSO only was transferred to the assay plate by a pin tool. The plates were incubated at 37 C for 16 hours. After 1 uL of LiveBLAzer B/G FRET substrate was added using a Flying Reagent Dispenser, the plates were incubated at room temperature for 2 hours, and fluorescence intensity was measured by an Envision plate reader.
Potency is the fitted concentration of half-maximal effect.

SMILES | Potency | activation
O.O.O.O.O.O.O.O=S(=O)([O-])[O-].[Co+2] | inconclusive: 66.8 µM [activator, single point] | –
C=C(C)C1CC=C(C)C(O)C1 (stereo not given) | – | inconclusive: 6.32%
Cc1cc(-c2ccc(N=Nc3cc(S(=O)(=O)O)c4ccccc4c3N)c(C)c2)ccc1N=Nc1cc(S(=O)(=O)O)c2ccccc2c1N | inconclusive: 66.8 µM [activator, partial curve] | –
ClCCCl | inactive | –
Cc1ccc(N(C)C)cc1 | – | inactive: -1.1%
C=CCCCCCCC=C | inconclusive: 0.0133 µM [side channel, falling, full curve, poor fit] | –
O=[N+]([O-])c1ccccc1CCO | inconclusive: 33.5 µM [side channel, rising, partial curve, poor fit] | –
COc1cc(/C=C/c2ccccc2)oc(=O)c1 | inconclusive: 37.6 µM [activator, partial curve] | –
Cc1ccccc1C=O | inconclusive: 47.3 µM [activator, partial curve] | –
CCCCCCCCCCCC(=O)O | – | inconclusive: 10.4%
C/C(C=O)=C/c1ccccc1 | inconclusive: 75 µM [activator, partial curve, poor fit] | –
COCC(=O)O | inactive | –
Cc1c(C(=O)O)c(O)cc2c1C(=O)c1c(O)c([C@H]3O[C@H](CO)[C@@H](O)[C@H](O)[C@H]3O)c(O)c(O)c1C2=O | – | inactive: -1.41%
Cc1ccc(C)cc1 | – | inactive: -0.701%
C=C(C)[C@H]1CC=C(C)C(=O)C1 | inconclusive: 18.8 µM [fluorescent, side channel, partial curve, poor fit] | inconclusive: -5.04%
CCC(C)(C)OC | – | inactive: -1.12%
CCCCCCC=O | – | inactive: -0.959%
O=C(O)c1ccc(O)cc1O | inactive and inconclusive: 66.8 µM [activator, partial curve, poor fit] | –

SMILES | Potency | activation
O=[N+]([O-])c1cc(C(F)(F)F)ccc1Cl | – | inactive: 2.27%
Clc1cc(Cl)c(Cl)cc1Cl | inactive | –
CCCCCCCC[N+](CCCCCCCC)(CCCCCCCC)CCCCCCCC | active: 8.41 µM | –
CCC(C)Nc1ccc(NC(C)CC)cc1 (stereo not given) | inconclusive: 37.6 µM [inhibitor, single point] and inconclusive: 13.7 µM [cytotoxic, partial curve] | –
C/C=C/C=C/C=O | active: 37.6 µM | –
c1ccc2n[nH]nc2c1 | – | inconclusive: 6.95%
Brc1ccc(-c2ccccc2)cc1 | – | inactive: 1.23%
O=[N+]([O-])c1cc(Cl)c(Cl)c(Cl)c1Cl | active: 29.8 µM | –
Brc1cc(Oc2cc(Br)c(Br)c(Br)c2Br)c(Br)c(Br)c1Br | – | inconclusive: 11.2%
O=C1OC(=O)c2c(Cl)c(Cl)c(Cl)c(Cl)c21 | – | inconclusive: 6.74%
CCCCCCCCOc1ccc(C(=O)O)cc1 | inconclusive: 75 µM [activator, single point] | –
O=C(O)c1ccc(CO)o1 | – | inconclusive: 6.53%
O=C=Nc1ccc(Cl)c(Cl)c1 | active: 75 µM | –
O=[N+]([O-])c1cc(N(CCO)CCO)ccc1NCCO | inactive | –
O=C(O)/C=C/C(=O)O | inconclusive: 0.422 µM [side channel, rising, full curve, poor fit] | –
C=CC(=O)CC | inconclusive: 42.2 µM [activator, partial curve] | –
OCC(O)CO | inconclusive: 47.3 µM [activator, partial curve] | inconclusive: 6.17%
Cc1ccc(S(=O)(=O)Oc2ccc(N=Nc3ccc(-c4ccc(N=Nc5c(O)ccc6cc(S(=O)(=O)O)cc(S(=O)(=O)O)c56)c(C)c4)cc3C)cc2)cc1 | inconclusive: 42.2 µM [activator, partial curve] | –

Looked up above.
Value of Clc1cc(Cl)c(Cl)cc1Cl under Potency: inactive
Value of O=C1OC(=O)c2c(Cl)c(Cl)c(Cl)c(Cl)c21 under activation: inconclusive: 6.74%

Same assay, conditions: HepG2 ARE-bla reporter, beta-lactamase FRET ratio, 16 h; at 96 µM (top of the series)

SMILES | activation
CCCCCCCCCCCC(=O)O | inactive: 8.92%
Brc1cc(Oc2cc(Br)c(Br)c(Br)c2Br)c(Br)c(Br)c1Br | inactive: 4.36%
